Test results taken from PubChem BioAssay AID2551 (National Center for Advancing Translational Sciences (NCATS), 2010).
About 17,000 (5.5%) of roughly 310,000 compounds were called active. This list was built around the results that the source calls inconclusive (neither active nor inactive); the mix of calls is not that of the screen. Calls come from the whole dose curve; as a rule, active = well fitted inhibition curve with a large enough effect; inconclusive = small, poorly fitted or top-dose-only effect, or effect the other way; inactive = no such curve, though single readings can be large or run the other way. Potencies of inconclusive entries are doubtful fits and often do not repeat.

The chains behind the UniProt entries cited, without tags or fusion partners. Where a name states a change or a piece, a line headed by the entry shows the natural chain unless it says otherwise.
UniProt P51450: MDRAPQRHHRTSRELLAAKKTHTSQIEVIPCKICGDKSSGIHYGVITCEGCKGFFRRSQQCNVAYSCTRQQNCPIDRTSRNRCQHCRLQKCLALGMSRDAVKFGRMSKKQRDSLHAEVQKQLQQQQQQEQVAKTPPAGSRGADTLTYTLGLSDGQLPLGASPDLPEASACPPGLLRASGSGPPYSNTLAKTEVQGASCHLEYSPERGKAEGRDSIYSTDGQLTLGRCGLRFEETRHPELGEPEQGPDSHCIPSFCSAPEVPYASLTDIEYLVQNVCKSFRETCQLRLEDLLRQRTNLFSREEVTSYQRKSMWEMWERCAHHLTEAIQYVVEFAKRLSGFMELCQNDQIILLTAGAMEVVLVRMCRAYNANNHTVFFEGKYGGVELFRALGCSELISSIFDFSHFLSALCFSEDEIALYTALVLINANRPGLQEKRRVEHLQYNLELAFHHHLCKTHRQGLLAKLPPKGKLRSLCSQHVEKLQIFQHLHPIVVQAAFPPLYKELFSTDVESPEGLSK

Each molecule was assayed against Nuclear receptor ROR-gamma (Mus musculus) (UniProt P51450) (assay: qHTS for inhibitors of ROR gamma transcriptional activity). Conditions: Drosophila S2 Gal4-RORgamma UAS-luciferase reporter, 20 h; series mostly up to 53.6 µM.
Method in brief: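 Using a luciferase readout, inhibitors were identified by reduced reporter activity in Drosophila cells coexpressing a copper-inducible Gal4–ROR gamma fusion and UAS-driven Photinus luciferase, incubated 20 hr after 700 uM copper sulfate.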
Note: nearly all actives have a fitted effect of over 60% in size.
Potency is the fitted concentration of half-maximal effect.

| SMILES | Potency |
| --- | --- |
| O=C(Nc1nc2ccccc2[nH]1)c1ccccc1OC(F)F | active: 7.94 µM |
| O=C(c1ccccc1F)N(Cc1ccccc1)Cc1ccccc1 | inactive |
| COc1cc(NS(=O)(=O)c2ccc(N/C=C(\C#N)c3nc4cc(Cl)ccc4o3)cc2)nc(OC)n1 | inconclusive: 35.5 µM [inhibitor, single point] |
| C=C(Br)Cn1c(CC(C)C)nc2ccccc21 | active: 35.5 µM |
| N#Cc1c(NCc2ccccc2)ccnc1NCc1cccnc1 | inconclusive: 3.16 µM [activator, partial curve, poor fit] |
| Cc1cccc(-c2nc3ccccc3c(=O)n2NC(=O)c2ccc([N+](=O)[O-])c(C)c2)c1 | inconclusive: 3.55 µM [activator, single point] |
| COc1ccc(C)cc1S(=O)(=O)N(C)CC(=O)N1CCCC1 | inactive |
| CCc1nnc(NC(=O)CSc2nc(-c3ccc(OC)cc3)ns2)s1 | inconclusive: 35.5 µM [inhibitor, single point] |
| COc1ccccc1CCNCc1ccc(OC)c(OCc2ccccc2)c1 | inconclusive: 8.91 µM [activator, partial curve, poor fit] |
| Cc1ccc(C2(O)CN(c3ccccc3)C3=[N+]2CCS3)cc1 (stereo not drawn) | inconclusive: 15.8 µM [activator, single point] |
| COc1ccc2c(c1)CC(C1(O)C(=O)N(C)c3ccccc31)C2=O (stereo not drawn) | inactive |
| CCc1cc(C(=O)Nc2ncccc2O)sc1C | active: 7.94 µM |
| Cc1ccc(NC(=O)CSc2nc(N)c3c4c(sc3n2)CSC(C)(C)C4)cc1 | inconclusive: 22.4 µM [activator, single point] |
| COc1ccc(C(=O)NN/C(C)=C/C(=O)c2ccccc2)cc1 | active: 6.31 µM |
| CCCn1nc(C(=O)NC2CCCc3ccccc32)c2ccccc2c1=O (stereo not drawn) | inconclusive: 28.2 µM [inhibitor, single point] |
| CCOC(=O)C1=C(C)NC(=O)NC1c1c(OC)ccc2ccccc12 (stereo not drawn) | inactive |
| Cc1cc(C(F)(F)F)nn1CC(=O)NNC(=S)NCC(C)C | active: 7.08 µM |
| O=C(NCCc1ccccc1)c1cccs1 | inconclusive: 12.6 µM [inhibitor, single point] |
| O=C(Nc1cccc(S(=O)(=O)C(F)F)c1)c1ccc(S(=O)(=O)N2CCCCC2)cc1 | inconclusive: 10 µM [activator, partial curve] |
| CN1CCN(CCCNC(=O)c2ccc(/C=C3/Sc4ccccc4N(Cc4cccc(Cl)c4)C3=O)cc2)CC1 | inconclusive: 35.5 µM [inhibitor, single point] |
| Cc1ccc(NC(=O)CSc2nc3c(cc2C#N)C(=O)CCC3)cc1S(=O)(=O)N(C)C | inactive |
| CC(=O)ON1C(C)(C)CC(OC(=O)c2ccccc2)CC1(C)C | inactive |
| CC(C)(C)NC(=O)CCN(/N=C/c1ccc([N+](=O)[O-])o1)C1=NS(=O)(=O)c2ccccc21 | inactive |
| Cc1ccc(-c2csc3nc4cc(C(N)=O)ccc4c(=O)n23)cc1 | inactive |

| SMILES | Potency |
| --- | --- |
| Cc1ccc(N2C(=O)c3ccccc3NC2(C(=O)O)c2ccccc2)cc1Cl (stereo not drawn) | inactive |
| NS(=O)(=O)c1ccc(NC(=O)CN2CCc3ccccc3C2)cc1 | inconclusive: 0.158 µM [inhibitor, full curve, poor fit] |
| CC(C)c1nnc(NC(=O)c2cnccn2)s1 | inconclusive: 35.5 µM [inhibitor, single point] |
| Cc1ccc(S(=O)(=O)N2CCN(c3cnn(-c4ccccc4)c(=O)c3Cl)CC2)cc1 | inactive |
| COc1cc(/C(C)=N/NC(=O)C(O)(c2ccccc2)c2ccccc2)ccc1O | inconclusive: 11.2 µM [inhibitor, partial curve] |
| CCc1ccc(NC(=O)CCS(=O)(=O)c2ccc(Br)cc2)cc1 | inconclusive: 12.6 µM [activator, single point] |
| Cc1ccc(C)c(NC(=S)Nc2cccnc2)c1 | inconclusive: 12.6 µM [inhibitor, single point] |
| Cc1ccc(-n2c(-c3ccccc3)c[nH]c2=S)cc1 | active: 2.24 µM |
| CSc1nsc(SCc2ccc(Cl)cc2)n1 | inactive |
| Cc1ccc2cccc(O)c2[n+]1[O-] | inconclusive: 10 µM [inhibitor, partial curve] |
| CCn1c(SCC(=O)N2CC(C)OC(C)C2)nc2c([nH]c3ccccc32)c1=O (stereo not drawn) | inconclusive: 20 µM [activator, single point] |
| CCOC(=O)NC(c1ccc(C(C)C)cc1)C(Cl)(Cl)Cl (stereo not drawn) | inconclusive: 22.4 µM [activator, single point] |
| O=C(O)c1ccc(CSc2nnc(COc3ccc(Cl)cc3Cl)o2)cc1 | inconclusive: 2.24 µM [activator, full curve, poor fit] |
| CC(C)Oc1cccc(C(=O)N/N=C/c2ccoc2)c1 | inconclusive: 35.5 µM [inhibitor, single point] |
| CC(C)(C)NC(=O)NCC1CCCC1NC(=O)NC(C)(C)C (stereo not drawn) | inactive |
| Cc1ccc2ccc(S(=O)(=O)NCc3ccccn3)cc2c1 | inconclusive: 14.1 µM [inhibitor, partial curve, poor fit] |
| CC(C)=CCc1c(O)cc2oc(C)cc(=O)c2c1O | inactive |
| CCCCn1c(CNC(=O)C23CC4CC(CC(C4)C2)C3)nnc1SC(C)CC (stereo not drawn) | inconclusive: 35.5 µM [inhibitor, single point] |
| COc1ccc(CCN(C)CCCOc2ccc(S(=O)(=O)c3[nH]c4ccccc4c3C(C)C)cc2)cc1OC | active: 14.1 µM |
| CCN(CC)CCC(c1ccc(N(C)C)cc1)c1c(OC)cc(OC)c2ccc(=O)oc12 (stereo not drawn) | inactive |
| CC(C)Nc1ccc(Nc2ccnc3cc4ccccc4cc23)cc1 | inconclusive: 35.5 µM [inhibitor, single point] |
| CCC1CCCCN1CCN1C(=O)C2C(C(=O)Nc3ccc(OC)cc3)C3C=CC2(O3)C1C(=O)NC1CCCCC1 (stereo not drawn) | inactive |
| Oc1ccc2ccccc2c1CNc1ccc(Br)cc1 | inconclusive: 11.2 µM [inhibitor, single point] |
| COc1ccc(-n2c(=S)[nH]c3cc(C(=O)Nc4ccc(F)cc4)ccc3c2=O)c(OC)c1 | active: 10 µM |

3 compounds picked at random from the list so far, as already listed:

| SMILES | Potency |
| --- | --- |
| COc1ccc(-n2c(=S)[nH]c3cc(C(=O)Nc4ccc(F)cc4)ccc3c2=O)c(OC)c1 | active: 10 µM |
| CC(C)Oc1cccc(C(=O)N/N=C/c2ccoc2)c1 | inconclusive: 35.5 µM [inhibitor, single point] |
| CCC1CCCCN1CCN1C(=O)C2C(C(=O)Nc3ccc(OC)cc3)C3C=CC2(O3)C1C(=O)NC1CCCCC1 (stereo not drawn) | inactive |
